From patent publication US20250154171A1, “RAS INHIBITORS” (Revolution Medicines, Inc., priority 2023, published 2025)
pIC50: −log10 of the molar value. Some of these results come from one statement about several compounds together.

By UniProt entry, the sequences of proteins in these tests, tags left out. Where a name states a change or a piece, a line headed by the entry shows the natural chain unless it says otherwise. Residues count along the entry.
UniProt P01116, 1-188 isoform P01116-2 G12V: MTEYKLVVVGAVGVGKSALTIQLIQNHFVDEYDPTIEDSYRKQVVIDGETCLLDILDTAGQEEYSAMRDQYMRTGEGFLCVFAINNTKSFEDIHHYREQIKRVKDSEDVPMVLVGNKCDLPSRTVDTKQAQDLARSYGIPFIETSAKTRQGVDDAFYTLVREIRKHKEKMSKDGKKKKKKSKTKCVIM
UniProt P62937, whole entry: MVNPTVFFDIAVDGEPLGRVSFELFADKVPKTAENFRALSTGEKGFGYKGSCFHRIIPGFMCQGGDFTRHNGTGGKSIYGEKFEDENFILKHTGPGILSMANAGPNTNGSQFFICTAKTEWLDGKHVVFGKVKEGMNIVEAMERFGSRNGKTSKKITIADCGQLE

Legend:
[1] = target: K-RasG12V (Homo sapiens, UniProt P01116+P62937, G12V); test: Disruption of BRAF RBD interaction with K-Ras (TR-FRET / MOA assay), K-RasG12V; assay type: biochemical; settings: TR-FRET with cyclophilin A and GST-BRAF RBD, read-out: IC50 with respect to K-RasG12V (disruption of BRAF RBD interaction)
[2] = test system: Capan-1 (K-Ras G12V); test: CellTiter-Glo cell viability assay, Capan-1; assay type: cell-based, human; settings: 5-day treatment, Capan-1 versus A375

Compound | pIC50 [1] | decrease in cell viability with respect to KRAS G12V (Capan-1) versus wild-type KRAS (A375) [2]
CO[C@@H](C)c1ncc(C2CCN(C3CC3)CC2)cc1-c1c2c3cc(ccc3n1CCOC1CCOCC1)-c1coc(n1)[C@@H](N1CC3(COC3)C1)[C@H](NC(=O)C13CC(C1)C(C)(C)O3)C(=O)N1CCC[C@H](N1)C(=O)OCC(C)(C)C2 (racemic) [Example A21] | > 6.00 | greater decrease in cell viability
C[C@@H]1[C@H](C)[C@H]1C(=O)N[C@@H]1C(=O)N2CCC[C@H](N2)C(=O)OCC(C)(C)Cc2c3n(c4ccc(cc24)-c2csc(n2)[C@H]1N1CC2(COC2)C1)CCOCCO[C@@H](C)c1ncc(N2CCN(C4CC4)CC2)cc1-3 (racemic) [Example A22] | > 6.00 | greater decrease in cell viability
CO[C@@H](C)c1ncc(N2CCN(C3CC3)CC2)cc1-c1c2c3cc(ccc3n1CCOC1CCOCC1)-c1csc(n1)[C@@H](N1CC3(COC3)C1)[C@H](NC(=O)C13CCC(CO1)C3)C(=O)N1CCC[C@H](N1)C(=O)OCC(C)(C)C2 (racemic) [Example A26] | > 6.00 | greater decrease in cell viability
CCO[C@@H]1c2nc(cs2)-c2ccc3c(c2)c(c(-c2cc(N4CCN(C5CC5)CC4)cnc2[C@H](C)OC)n3CCOC2CCOCC2)CC(C)(C)COC(=O)[C@@H]2CCCN(N2)C(=O)[C@H]1NC(=O)C12CCC(C1)C(C)O2 (mixture of isomers) [Example A27] | > 6.00 | greater decrease in cell viability
CCO[C@@H]1c2nc(cs2)-c2ccc3c(c2)c(c(-c2cc(N4CCN(C5CC5)CC4)cnc2[C@H](C)OC)n3CCOC2CCOCC2)CC(C)(C)COC(=O)[C@@H]2CCCN(N2)C(=O)[C@H]1NC(=O)C12CCC(C)(CO1)C2 (racemic) [Example A28] | > 6.00 | greater decrease in cell viability
CCO[C@@H]1c2nc(cs2)-c2ccc3c(c2)c(c(-c2cc(N4CCN(C5CC5)CC4)cnc2[C@H](C)OC)n3CCOC2CCOCC2)CC(C)(C)COC(=O)[C@@H]2CCCN(N2)C(=O)[C@H]1NC(=O)C12CCC(CO1)C2 (racemic) [Example A29] | > 6.00 | greater decrease in cell viability
CCO[C@@H]1c2nc(cs2)-c2ccc3c(c2)c(c(-c2cc(N4CCN(C5CC5)CC4)cnc2[C@H](C)OC)n3CCOC2CCOCC2)CC(C)(C)COC(=O)[C@@H]2CCCN(N2)C(=O)[C@H]1NC(=O)C12CC(C1)C1(CC1)O2 (racemic) [Example A30] | > 6.00 | greater decrease in cell viability
CO[C@@H](C)c1ncccc1-c1c2c3cc(ccc3n1C1CC1)-c1coc(n1)[C@@H](N1CC(C)(OC)C1)[C@H](NC(=O)[C@@H]1OC[C@@H]1C)C(=O)N1CCC[C@H](N1)C(=O)OCC(C)(C)C2 (racemic) [Example A31] | > 6.00 | greater decrease in cell viability
CO[C@@H](C)c1ncc(C2CCN(C3CC3)CC2)cc1-c1c2c3cc(ccc3n1CCOC1CCOCC1)-c1coc(n1)[C@@H](N1CC3(COC3)C1)[C@H](NC(=O)C13CC(C1)C(C)(C)O3)C(=O)N1N[C@H](C(=O)OCC(C)(C)C2)C2CC1C2 (racemic) [Example A32] | > 6.00 | greater decrease in cell viability
C[C@@H]1OC[C@H](C)OCCn2c(c3c4cc(ccc42)-c2csc(n2)[C@@H](N2CC4(COC4)C2)[C@H](NC(=O)C24CC(C2)[C@H](C)O4)C(=O)N2CCC[C@H](N2)C(=O)OCC(C)(C)C3)-c2cc(N3CCN(C4CC4)CC3)cnc21 (racemic) [Example A34] | > 6.00 | greater decrease in cell viability
CO[C@@H](C)c1ncccc1-c1c2c3cc(ccc3n1CC(F)(F)F)-c1coc(n1)[C@@H](N1CC(C)(OC)C1)[C@H](NC(=O)C13CC(C1)C(C)(C)O3)C(=O)N1N[C@H](C(=O)OCC(C)(C)C2)C2CC1C2 (racemic) [Example A36] | > 6.00 | greater decrease in cell viability
CO[C@@H](C)c1ncccc1-c1c2c3cc(ccc3n1C1COC1)-c1coc(n1)[C@@H](N1CC(C)(OC)C1)[C@H](NC(=O)[C@@H]1OC[C@@H]1C)C(=O)N1CCC[C@H](N1)C(=O)OCC(C)(C)C2 (racemic) [Example A37] | > 6.00 | greater decrease in cell viability
CO[C@@H](C)c1ncc(C2CCN(C3CC3)CC2)cc1-c1c2c3cc(ccc3n1CCOC1CCOCC1)-c1coc(n1)[C@@H](N1CC3(COC3)C1)[C@H](NC(=O)[C@@H]1OC[C@@H]1C)C(=O)N1N[C@H](C(=O)OCC(C)(C)C2)C2CC1C2 (racemic) [Example A39] | > 6.00 | greater decrease in cell viability
[2H]C([2H])([2H])[C@@H]1OC2(C(=O)N[C@@H]3C(=O)N4CCC[C@H](N4)C(=O)OCC(C)(C)Cc4c5n(c6ccc(cc46)-c4csc(n4)[C@H]3N3CC4(COC4)C3)CCO[C@@H](C)CO[C@@H](C)c3ncccc3-5)CC1(C)C2 (racemic) [Example A41] | > 6.00 | greater decrease in cell viability
COC1CN([C@@H]2c3nc(cs3)-c3ccc4c(c3)c(c(-c3cccnc3[C@H](C)OC)n4C3CN(C4CC4)C3)CC(C)(C)COC(=O)[C@@H]3CCCN(N3)C(=O)[C@H]2NC(=O)[C@H]2[C@H](C)[C@@H]2C)C1 (racemic) [Example A42] | > 6.00 | greater decrease in cell viability
CO[C@@H](C)c1ncc(C2CCN(C3CC3)CC2)cc1-c1c2c3cc(ccc3n1CCOC1CCOCC1)-c1csc(n1)[C@@H](N1CC3(CCCO3)C1)[C@H](NC(=O)[C@@H]1O[C@@H](C)[C@H]1C)C(=O)N1CCC[C@H](N1)C(=O)OCC(C)(C)C2 (racemic) [Example A43] | > 6.00 | greater decrease in cell viability
CO[C@@H](C)c1ncc(C2CCN(C3CC3)CC2)cc1-c1c2c3cc(ccc3n1CCOC1CCOCC1)-c1csc(n1)[C@@H](N1CC3(CCCO3)C1)[C@H](NC(=O)[C@H]1O[C@H](C)[C@@H]1C)C(=O)N1CCC[C@H](N1)C(=O)OCC(C)(C)C2 (racemic) [Example A44] | > 6.00 | greater decrease in cell viability
CO[C@@H](C)c1ncc(N2CCN(C3CC3)CC2)cc1-c1c2c3cc(ccc3n1CCOC1CCOCC1)-c1csc(n1)[C@@H](N1CC3(CCCO3)C1)[C@H](NC(=O)[C@H]1O[C@@H](C)[C@H]1C)C(=O)N1CCC[C@H](N1)C(=O)OCC(C)(C)C2 (racemic) [Example A45] | > 6.00 | greater decrease in cell viability
CO[C@@H](C)c1ncc(C2CCN(C3CC3)CC2)cc1-c1c2c3cc(ccc3n1CCOC1CCOCC1)-c1csc(n1)[C@@H](N1CC3(CCOC3)C1)[C@H](NC(=O)[C@@H]1O[C@H](C)[C@@H]1C)C(=O)N1CCC[C@H](N1)C(=O)OCC(C)(C)C2 (racemic) [Example A46] | > 6.00 | greater decrease in cell viability
[2H]C([2H])([2H])C1OC2(C(=O)N[C@@H]3C(=O)N4CCC[C@H](N4)C(=O)OCC(C)(C)Cc4c(-c5cc(C6CCN(C7CC7)CC6)cnc5[C@H](C)OC)n(CCOC5CCOCC5)c5ccc(cc45)-c4csc(n4)[C@H]3N3CC4(COC4)C3)CC1([2H])C2 (mixture of isomers) [Example A47] | > 6.00 | greater decrease in cell viability
C[C@@H]1OC[C@H](C)OCCn2c(c3c4cc(ccc42)-c2csc(n2)[C@@H](N2CC4(COC4)C2)[C@H](NC(=O)C24CC(C2)[C@H](C)O4)C(=O)N2CCC[C@H](N2)C(=O)OCC(C)(C)C3)-c2cccnc21 (racemic) [Example A48] | > 6.00 | greater decrease in cell viability
C[C@@H]1OC[C@H](C)OCCn2c(c3c4cc(ccc42)-c2csc(n2)[C@@H](N2CC4(COC4)C2)[C@H](NC(=O)C24CC(C)(C2)[C@H](C)O4)C(=O)N2CCC[C@H](N2)C(=O)OCC(C)(C)C3)-c2cccnc21 (racemic) [Example A49] | > 6.00 | greater decrease in cell viability
CO[C@@H](C)c1ncc(C2CCN(C3CC3)CC2)cc1-c1c2c3cc(ccc3n1CCOC1CCOCC1)-c1csc(n1)[C@@H](N1CC3(CCO3)C1)[C@H](NC(=O)C13CC(C1)[C@H](C)O3)C(=O)N1CCC[C@H](N1)C(=O)OCC(C)(C)C2 (racemic) [Example A50] | > 6.00 | greater decrease in cell viability
CO[C@@H](C)c1ncccc1-c1c2c3cc(ccc3n1C1CN(C3CC3)C1)-c1csc(n1)[C@@H](N1CC3(COC3)C1)[C@H](NC(=O)[C@H]1[C@H](C)[C@@H]1C)C(=O)N1N[C@H](C(=O)OCC(C)(C)C2)C2CC1C2 (racemic) [Example A52] | > 6.00 | greater decrease in cell viability
CO[C@@H](C)c1ncccc1-c1c2c3cc(ccc3n1C1CC1)-c1coc(n1)[C@@H](N1CC3(COC3)C1)[C@H](NC(=O)C13CC(C1)C(C)(C)O3)C(=O)N1CCC[C@H](N1)C(=O)OCC(C)(C)C2 (racemic) [Example A53] | > 6.00 | greater decrease in cell viability
CO[C@@H](C)c1ncccc1-c1c2c3cc(ccc3n1C1COC1)-c1coc(n1)[C@@H](N1CC3(COC3)C1)[C@H](NC(=O)[C@@H]1OC[C@@H]1C)C(=O)N1CCC[C@H](N1)C(=O)OCC(C)(C)C2 (racemic) [Example A54] | > 6.00 | greater decrease in cell viability
